Measured values as given in patent US12279521B2, “Materials for organic electroluminescent devices” (Merck Patent GmbH, priority 2019, dated 2025).

Assay: Loss of OLED efficiency after baking of emission layer at elevated temperature
Settings: OLED per Tables 5 and 6
Description: The production of the corresponding OLED components is described below.
One way of processing the matrix materials of the invention is from solution. There are already many descriptions of the production of completely solution-based OLEDs in the literature, for example in WO 2004/037887 by means of spin coating. There have likewise been many previous descriptions of the production of vacuum-based OLEDs, including in WO 2004/058911. In the examples discussed hereinafter, layers applied in a solution-based and vacuum-based manner are combined within an OLED, and so the processing up to and including the emission layer is effected from solution and in the subsequent layers (hole blocker layer and electron transport layer) from vacuum. For this purpose, the previously described general methods are matched to the circumstances described here (layer thickness variation, materials) and combined as follows. The general structure is as follows: substrate/ITO (50 nm)/hole injection layer (HIL)/hole transport layer (HTL)/emission layer (EML)/optional hole blocker layer (HBL)/electron transport layer (ETL)/optional electron injection layer/cathode (aluminium, 100 nm). Substrates used are glass plates coated with structured ITO (indium tin oxide) of thickness 50 nm. For better processing, they are coated with PEDOT:PSS (poly(3,4-ethylenedioxy-2,5-thiophene) polystyrenesulfonate, purchased from Heraeus Precious Metals GmbH & Co. KG, Germany). PEDOT:PSS is spun on from water under air and subsequently baked under air at 180° C. for 10 minutes in order to remove residual water. The hole transport layer and the emission layer are applied to these coated glass plates. The hole transport layer used is crosslinkable. A polymer of the structures depicted below is used, which can be synthesized according to WO 2010/097155 or WO 2013/156130:
The emission layer is composed of at least one matrix material (host material) and an emitting dopant (emitter). In addition, it is possible to use mixtures of a plurality of matrix materials and co-dopants. Details given in such a form as TMM-A (92%):dopant (8%) mean here that the material TMM-A is present in the emission layer in a proportion by weight of 92% and dopant in a proportion by weight of 8%. The mixture for the emission layer is dissolved in toluene or optionally chlorobenzene. The typical solids content of such solutions is about 17 g/I when, as here, the layer thickness of 60 nm which is typical of a device is to be achieved by means of spin-coating. The layers are spun on in an inert gas atmosphere, argon in the present case, and baked for 10 minutes.
The cathode is formed by the thermal evaporation of an aluminium layer of thickness 100 nm. The OLEDs are characterized in a standard manner. For this purpose, the electroluminescence spectra, current-voltage-luminance characteristics (IUL characteristics) assuming Lambertian radiation characteristics and the (operating) lifetime are determined. The IUL characteristics are used to determine indices such as, for example, external quantum efficiency at a particular brightness. LT97 @ 60 mA/cm^2 is the lifetime before the OLED, given a constant current density of 60 mA/cm^2, has fallen to 97% of the starting luminance.

[1] = Ref. temp. 150, elevated temp. 180
[2] = Ref. temp. 160, elevated temp. 170
[3] = Ref. temp. 160, elevated temp. 180
[4] = Ref. temp. 150, elevated temp. 170

Structure (SMILES) | Loss of efficiency after baking at elevated temperature [1] | Loss of efficiency after baking at elevated temperature [2] | Loss of efficiency after baking at elevated temperature [3] | Loss of efficiency after baking at elevated temperature [4]
c1ccc(-c2cccc(-c3cc(-c4cccc(-c5ccccc5)c4)cc(C4(c5cc(-c6cccc(-c7ccccc7)c6)cc(-c6cccc(-c7ccccc7)c6)c5)c5ccccc5-c5ccccc54)c3)c2)cc1 [Compound B-1, reference compound] | ≥70% | ≥10% | ≥70% | 
c1ccc(-c2cc(-c3ccccc3)cc(-c3cccc(-c4cccc(C5(c6cccc(-c7cccc(-c8cc(-c9ccccc9)cc(-c9ccccc9)c8)c7)c6)c6ccccc6-c6ccccc65)c4)c3)c2)cc1 [Compound B-2, reference compound] |  |  | ≥10% | 
c1ccc(-c2cccc(-c3cc(-c4ccccc4)cc(-c4cccc(C5(c6cccc(-c7cc(-c8ccccc8)cc(-c8cccc(-c9ccccc9)c8)c7)c6)c6ccccc6-c6ccccc65)c4)c3)c2)cc1 [Compound B-4, reference compound] | ≥10% |  |  | 
c1ccc(-c2cc(-c3ccccc3)cc(-c3cccc(-c4cccc(C5(c6cccc(-c7cccc(-c8cc(-c9ccccc9)cc(-c9ccccc9)c8)c7)c6)c6ccccc6-c6c(-c7ccccc7)cccc65)c4)c3)c2)cc1 [Compound M-0002] | ≤5% |  | ≤5% | 
c1ccc(-c2cccc(-c3cc(-c4cccc(-c5ccccc5)c4)cc(C4(c5cc(-c6cccc(-c7ccccc7)c6)cc(-c6cccc(-c7ccccc7)c6)c5)c5ccccc5-c5c(-c6ccccc6)cccc54)c3)c2)cc1 [Compound M-0005] |  | ≤5% |  | ≤5%
c1ccc(-c2cccc(-c3cc(-c4cccc(-c5ccccc5)c4)cc(C4(c5cc(-c6cccc(-c7ccccc7)c6)cc(-c6cccc(-c7ccccc7)c6)c5)c5ccccc5-c5c(-c6ccccc6-c6ccccc6)cccc54)c3)c2)cc1 [Compound M-0043] | ≤5% |  |  | 
Cc1cc(C)c(-c2cccc3c2-c2ccccc2C3(c2cc(-c3cc(-c4ccc(C(C)(C)C)cc4)cc(-c4ccc(C(C)(C)C)cc4)c3)cc(-c3cc(-c4ccc(C(C)(C)C)cc4)cc(-c4ccc(C(C)(C)C)cc4)c3)c2)c2cc(-c3cc(-c4ccc(C(C)(C)C)cc4)cc(-c4ccc(C(C)(C)C)cc4)c3)cc(-c3cc(-c4ccc(C(C)(C)C)cc4)cc(-c4ccc(C(C)(C)C)cc4)c3)c2)c(C)c1 [Compound M-0086] | ≤5% |  |  | 
c1ccc(-c2cc(-c3ccccc3)cc(-c3cccc(-c4cccc(C5(c6cccc(-c7cccc(-c8cc(-c9ccccc9)cc(-c9ccccc9)c8)c7)c6)c6ccccc6-c6c(-c7cccc(-c8ccccc8)c7)cccc65)c4)c3)c2)cc1 [Compound M-0162] | ≤5% |  |  | 
Cc1ccc2c(c1)-c1c(-c3cccc(-c4ccccc4)c3)cccc1C2(c1cccc(-c2cccc3c2-c2ccccc2C3(C)C)c1)c1cccc(-c2cccc3c2-c2ccccc2C3(C)C)c1 [Compound M-0172] |  |  |  | ≤5%
c1ccc(-c2cc(-c3ccccc3)cc(-c3cccc(-c4cccc(C5(c6cccc(-c7cccc(-c8cc(-c9ccccc9)cc(-c9ccccc9)c8)c7)c6)c6cc7c(cc6-c6c5ccc5c6-c6ccccc6C56c5ccccc5-c5ccccc56)OCO7)c4)c3)c2)cc1 [Compound M-0226] | ≤5% |  |  | 
